From PMC6237925 come the findings set out here.

By UniProt entry, the sequences of proteins in these tests, tags left out. Residues count along the entry.
UniProt O60568, residues 25-738: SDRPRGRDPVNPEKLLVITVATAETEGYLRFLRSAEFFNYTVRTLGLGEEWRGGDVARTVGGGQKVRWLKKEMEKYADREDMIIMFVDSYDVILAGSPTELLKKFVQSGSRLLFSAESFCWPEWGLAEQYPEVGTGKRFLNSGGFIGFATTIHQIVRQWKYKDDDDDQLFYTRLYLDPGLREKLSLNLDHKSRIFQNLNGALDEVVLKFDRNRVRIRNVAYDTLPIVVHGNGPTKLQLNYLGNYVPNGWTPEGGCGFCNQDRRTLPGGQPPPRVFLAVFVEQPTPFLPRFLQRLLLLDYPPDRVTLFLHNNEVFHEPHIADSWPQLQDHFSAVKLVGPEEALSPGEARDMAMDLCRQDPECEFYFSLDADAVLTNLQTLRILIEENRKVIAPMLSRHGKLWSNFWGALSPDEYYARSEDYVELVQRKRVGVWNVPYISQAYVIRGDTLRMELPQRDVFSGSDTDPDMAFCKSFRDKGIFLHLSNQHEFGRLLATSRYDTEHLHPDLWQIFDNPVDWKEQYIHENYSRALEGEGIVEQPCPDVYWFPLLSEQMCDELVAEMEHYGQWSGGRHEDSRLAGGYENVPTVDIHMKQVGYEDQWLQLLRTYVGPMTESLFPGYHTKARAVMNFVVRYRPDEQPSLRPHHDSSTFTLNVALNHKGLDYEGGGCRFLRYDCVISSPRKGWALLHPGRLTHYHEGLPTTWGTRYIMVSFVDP
UniProt P40763: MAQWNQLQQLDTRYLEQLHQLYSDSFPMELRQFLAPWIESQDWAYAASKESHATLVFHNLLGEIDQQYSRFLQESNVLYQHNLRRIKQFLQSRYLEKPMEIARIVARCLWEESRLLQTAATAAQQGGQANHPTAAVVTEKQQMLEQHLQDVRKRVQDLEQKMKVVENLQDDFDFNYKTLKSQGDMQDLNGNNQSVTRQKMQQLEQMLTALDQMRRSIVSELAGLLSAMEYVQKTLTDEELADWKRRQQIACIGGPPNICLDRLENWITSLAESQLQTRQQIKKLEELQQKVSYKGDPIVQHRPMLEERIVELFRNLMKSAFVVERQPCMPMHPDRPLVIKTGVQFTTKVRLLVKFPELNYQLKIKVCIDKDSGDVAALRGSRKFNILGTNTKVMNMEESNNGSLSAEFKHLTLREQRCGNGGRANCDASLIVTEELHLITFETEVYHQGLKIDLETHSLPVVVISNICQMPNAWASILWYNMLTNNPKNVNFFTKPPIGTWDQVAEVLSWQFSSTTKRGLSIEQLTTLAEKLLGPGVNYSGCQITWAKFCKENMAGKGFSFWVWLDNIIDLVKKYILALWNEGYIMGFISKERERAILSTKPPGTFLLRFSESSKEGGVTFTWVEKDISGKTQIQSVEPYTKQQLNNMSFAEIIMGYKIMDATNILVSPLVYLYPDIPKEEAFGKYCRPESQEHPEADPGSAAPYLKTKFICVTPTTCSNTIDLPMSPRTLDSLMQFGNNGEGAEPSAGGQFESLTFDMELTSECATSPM

No constants are given. Whether binding was seen depends on the method and setting. Binding seen in cells or lysates may run through a third protein. Some results given as binding are weak or reduced against the parent protein; the word gives no strength.

Assay [1] has as its target Procollagen-lysine, 2-oxoglutarate 5-dioxygenase (PLOD3) (human (endogenous in R-H460)) (UniProt O60568). The assay is described as follows: proximity ligation; in situ PLA (Duolink) on paraformaldehyde-fixed R-H460 cells permeabilised with 0.2% Triton X-100; mouse anti-PLOD3 with rabbit anti-STAT3 (pS-STAT3 and pY-STAT3 staining by the legend); confocal microscopy.
Assay [2] has the same target. The assay is described as follows: co-IP; R-H460 cells transfected 48 h, lysed in NP-40 buffer (50 mM Tris-HCl pH 8, 150 mM NaCl, 1% NP-40); antibodies 1:100 at 4 °C, protein A-sepharose, immunoblotting.

Take “STAT3 phosphorylated at Ser727 (pS-STAT3) (from UniProt P40763 1-770)”: in assay [1], the binding result is on record as “binds”.

For “Signal transducer and activator of transcription 3 (STAT3) (from UniProt P40763 1-770)”, the binding result in assay [2] and in assay [1] was “binds” each time.
